Measured data: PubChem BioAssay AID720505 (Drosophila RNAi Screening Center, 2013)
Purpose: 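Fly regulators or components of the CRAC channel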 (primary screen). System: Drosophila S2R+ cells. Knock-down reagent: long dsRNA against Drosophila genes. Treatment: thapsigargin (2 µM) in calcium-free buffer to empty internal stores, then 2 mM calcium added back. Measured: 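Fluo-4 signal in 384-well plates read on a FLIPR after thapsigargin (2 µM, calcium-free) store depletion and 2 mM calcium add-back; unnormalised mean endpoint per well; screen run twice, selected wells retested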. Reading the numbers: calcium signal and retest calcium signal: higher = more calcium entry after store depletion. Rule for the call: 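About 1500 genes called as lowering calcium entry, by varying amounts, judged against per-plate control wells with STIM1 as positive and Rho1 as negative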. Calls: active = called as lowering calcium entry; inactive = not called.
In all, the deposit lists about 20,000 reagents; below is an unselected part of those that have a named target and a result. Over the whole deposit, about 2,100 (10%) got an active call. 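Raw plate signals without normalisation; calls rest on control-based scores that were not deposited; replicate 2 separates called from uncalled poorly.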 Unmarked entries are inactive. Names joined by + are all predicted targets of the reagent. Not given: the amount of reagent, the time to read-out.

target | dsRNA | calcium signal, replicate 1 | calcium signal, replicate 2 | retest calcium signal, replicate 1 | retest calcium signal, replicate 2
slim (GeneID 37121) | DRSC06921 | 72.2 (active) | 134 | – | –
eIF4E5 (GeneID 38878) | DRSC10975 | 81 | 61.2 | – | –
blot (GeneID 39939) | DRSC11328 | 113 | 79 | – | –
CG42336 (GeneID 36205) | DRSC05273 | 78.9 | 158 | – | –
CG42336 (GeneID 36205) | DRSC06332 | 95.4 | 126 | – | –
CG42336 (GeneID 36205) | DRSC06333 | 92.3 | 142 | 6779 | 131
CG15082 (GeneID 37173) | DRSC06513 | 137 | 96.9 | – | –
Est-6 (GeneID 39392) | DRSC11162 | 89.9 | 97.8 | – | –
Bub1 (GeneID 33758) | DRSC02357 | 132 | 209 | – | –
Bub1 (GeneID 33758) | DRSC23158 | 92.5 | 154 | – | –
CG8861 (GeneID 41109) | DRSC16449 | 99.6 | 75.6 | – | –
Ugt35D1 (GeneID 43708) | DRSC15107 | 95.2 | 103 | – | –
CG17508 (GeneID 49893) | DRSC07771 | 83.9 | 149 | – | –
Tmx3 (GeneID 39775) | DRSC10471 | 85.5 | 80 | – | –
CG5614 (GeneID 41906) | DRSC15845 | 147 | 143 | 7832 | 210
T3dh + pgc | DRSC04659 | 125 | 135 | – | –
lin-52 (GeneID 31499) | DRSC18106 | 217 | 142 | – | –
CG8993 (GeneID 38301) | DRSC08616 | 110 | 84.6 | – | –
CG31882 (GeneID 319000) | DRSC01084 | 120 | 82.1 | – | –
CG7856 (GeneID 35533) | DRSC04896 | 155 | 184 | – | –
CG13458 (GeneID 39646) | DRSC10005 | 106 | 86.5 | – | –
Or49a (GeneID 36350) | DRSC07493 | 109 | 166 | – | –
CG3544 (GeneID 33252) | DRSC00613 | 116 | 148 | – | –
Cpr65Av (GeneID 318014) | DRSC09727 | 129 | 117 | – | –
CG15715 (GeneID 39726) | DRSC10216 | 105 | 120 | – | –
CG8237 (GeneID 35891) | DRSC07119 | 144 | 163 | – | –
CG9263 (GeneID 34770) | DRSC03176 | 54 (active) | 99 | – | –
CG11191 (GeneID 35765) | DRSC06056 | 171 | 143 | – | –
CG11191 (GeneID 35765) | DRSC23224 | 124 | 130 | – | –
Cyp4d2 (GeneID 31192) | DRSC18458 | 130 | 175 | – | –
CG42402 (GeneID 7354470) | DRSC21116 | 123 | 95.8 | – | –
hbn (GeneID 47894) | DRSC04082 | 65.2 | 135 | – | –
hbn (GeneID 47894) | DRSC04238 | 71.3 | 159 | 116 | 165
hbn (GeneID 47894) | DRSC04239 | 58.9 | 184 | – | –
hbn (GeneID 47894) | DRSC22436 | 141 | 234 | – | –

Part of the list above, set out differently.
CG7856 (GeneID 35533) [DRSC04896]
- calcium signal, replicate 1: 155
- calcium signal, replicate 2: 184

CG13458 (GeneID 39646) [DRSC10005]
- calcium signal, replicate 1: 106
- calcium signal, replicate 2: 86.5

Or49a (GeneID 36350) [DRSC07493]
- calcium signal, replicate 1: 109
- calcium signal, replicate 2: 166

CG3544 (GeneID 33252) [DRSC00613]
- calcium signal, replicate 1: 116
- calcium signal, replicate 2: 148

Cpr65Av (GeneID 318014) [DRSC09727]
- calcium signal, replicate 1: 129
- calcium signal, replicate 2: 117

CG15715 (GeneID 39726) [DRSC10216]
- calcium signal, replicate 1: 105
- calcium signal, replicate 2: 120
